Assay results published in the supplement of paper PMC4604168 (melanoma cell lines).
Some of the results follow. Single values are uncertain, as repeats are few or missing.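 Cells were imaged in 1,536-well plates, and nuclei stained with an antibody against cleaved PARP were counted against all DNA-stained nuclei to give the apoptosis fraction. Screening doses were chosen to leave most cells alive, and resting and induced cleaved-PARP levels differ strongly between cell lines.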

How the values were obtained:
Assay in all cases: cleaved PARP positive nuclei fraction relative to DMSO control; melanoma cells; higher = more apoptosis
Conditions in all cases: library dose: low library concentration; 72 h
MZ2-MEL = system: MZ2-MEL
MeWo = system: MeWo
RPMI7951 = system: RPMI7951
RVH-421 = system: RVH-421
SkMel28 = system: SkMel28
SkMel2 = system: SkMel2
SkMel30 = system: SkMel30
SkMel5 = system: SkMel5
UACC257 = system: UACC257
UACC62 = system: UACC62

SMILES | cleaved PARP positive nuclei fraction (MZ2-MEL) | cleaved PARP positive nuclei fraction (MeWo) | cleaved PARP positive nuclei fraction (RPMI7951) | cleaved PARP positive nuclei fraction (RVH-421) | cleaved PARP positive nuclei fraction (SkMel28) | cleaved PARP positive nuclei fraction (SkMel2) | cleaved PARP positive nuclei fraction (SkMel30) | cleaved PARP positive nuclei fraction (SkMel5) | cleaved PARP positive nuclei fraction (UACC257) | cleaved PARP positive nuclei fraction (UACC62)
C=CCNC1=C2C[C@@H](C)C[C@H](OC)[C@H](O)[C@@H](C)/C=C(\C)[C@H](OC(N)=O)[C@@H](OC)/C=C\C=C(/C)C(=O)NC(=CC1=O)C2=O [Tanespimycin] + CN(NC(=O)CC(=O)NN(C)C(=S)c1ccccc1)C(=S)c1ccccc1 [STA4783] (first compound 0.002 µM, partner dose 0.006 µM) | 88.6% | 173% | 122% | 89.1% | 232% | 37.3% | 62.6% | 375% | 192% | 148%
C=CCNC1=C2C[C@@H](C)C[C@H](OC)[C@H](O)[C@@H](C)/C=C(\C)[C@H](OC(N)=O)[C@@H](OC)/C=C\C=C(/C)C(=O)NC(=CC1=O)C2=O [Tanespimycin] + OCCn1cc(-c2cnc3nnn(Cc4ccc5ncccc5c4)c3n2)cn1 [PF04217903] (first compound 0.002 µM, partner dose 1 µM) | 103% | 72.5% | 115% | 24.6% | 79.2% | 126% | 56.4% | 70.4% | 34.7% | 67.5%
Cn1nnc2c(C(N)=O)ncn2c1=O [temozolomide] + CN(C)S(=O)(=O)c1ccc2c(c1)/C(=C/c1cc3c([nH]1)CCCC3)C(=O)N2 [SU6656] (first compound 2 µM, partner dose 0.4 µM) | 128% | 98.5% | 44.9% | 124% | 71.6% | 43.9% | 77.2% | 77.2% | 35.1% | 78%
C=CCn1c(=O)c2cnc(Nc3ccc(N4CCN(C)CC4)cc3)nc2n1-c1cccc(C(C)(C)O)n1 + O=C(Nc1cccc(Cl)c1)Nc1ncc(CCNc2ncnc3ccsc23)s1 [SNS314] (first compound 0.02 µM, partner dose 0.0008 µM) | 119% | 42% | 107% | 244% | 117% | 45.7% | 57.7% | 126% | 138% | 58.6%
C#Cc1cccc(Nc2ncnc3cc(OCCOC)c(OCCOC)cc23)c1 [erlotinib] + CN(NC(=O)CC(=O)NN(C)C(=S)c1ccccc1)C(=S)c1ccccc1 [STA4783] (first compound 0.8 µM, partner dose 0.006 µM) | 383% | 201% | 50.4% | 53.3% | 51.7% | 30.6% | 62.7% | 137% | 48.4% | 225%
Nc1cccc2c1CN(C1CCC(=O)NC1=O)C2=O (stereo not given) [lenalidomide] + COc1cc(Nc2ncc(F)c(Nc3ccc4c(n3)NC(=O)C(C)(C)O4)n2)cc(OC)c1OC [Tamatinib] (first compound 1 µM, partner dose 0.4 µM) | 169% | 84.4% | 39.5% | 24.3% | 269% | 162% | 117% | 15.7% | 69.4% | 120%
Nc1cccc2c1CN(C1CCC(=O)NC1=O)C2=O (stereo not given) [lenalidomide] + O=C(Nc1cccc(Cl)c1)Nc1ncc(CCNc2ncnc3ccsc23)s1 [SNS314] (first compound 1 µM, partner dose 0.0008 µM) | 35.3% | 120% | 89.7% | 142% | 134% | 151% | 139% | 134% | 110% | 162%
OCc1c[nH]c2ccccc12 [Indole-3-carbinol] + CC(C)(C)c1cnc(CSc2cnc(NC(=O)C3CCNCC3)s2)o1 [SNS-032] (first compound 0.8 µM, partner dose 0.01 µM) | 145% | 49.7% | 111% | 134% | 155% | 82.3% | 60.3% | 92.4% | 99.5% | 104%
Nc1cccc2c1CN(C1CCC(=O)NC1=O)C2=O (stereo not given) [lenalidomide] + CC(C)(C)c1cnc(CSc2cnc(NC(=O)C3CCNCC3)s2)o1 [SNS-032] (first compound 1 µM, partner dose 0.01 µM) | 109% | 90.4% | 100% | 108% | 96.1% | 137% | 55.7% | 41.3% | 33.5% | 111%
CC(=O)c1c(C)c2cnc(Nc3ccc(N4CCNCC4)cn3)nc2n(C2CCCC2)c1=O [palbociclib] + NCC(=O)Nc1ccc(-n2nc(C(F)(F)F)cc2-c2ccc3c(ccc4ccccc43)c2)cc1 [OSU03012] (first compound 0.04 µM, partner dose 1 µM) | 63.2% | 53.7% | 179% | 100% | 162% | 144% | 120% | 195% | 77.3% | 230%
CC1(C)NC(=O)N(c2ccc([N+](=O)[O-])c(C(F)(F)F)c2)C1=O [nilutamide] + OCCn1cc(-c2cnc3nnn(Cc4ccc5ncccc5c4)c3n2)cn1 [PF04217903] (first compound 1 µM, partner dose 1 µM) | 62.8% | 94.6% | 80.9% | 125% | 101% | 100% | 55.6% | 129% | 55.6% | 59.5%
NC(=O)Nc1cc(-c2cccc(F)c2)sc1C(=O)N[C@H]1CCCNC1 + COc1cc2c(Oc3ccc4[nH]c(C)cc4c3F)ncnc2cc1OCCCN1CCCC1 [cediranib] (first compound 0.02 µM, partner dose 0.4 µM) | 45.8% | 131% | 159% | 19.9% | 152% | 77.1% | 76.8% | 61% | 36.9% | 216%
Cn1c(Nc2ccc(C(F)(F)F)cc2)nc2cc(Oc3ccnc(-c4ncc(C(F)(F)F)[nH]4)c3)ccc21 + COc1cc2c(Oc3ccc4[nH]c(C)cc4c3F)ncnc2cc1OCCCN1CCCC1 [cediranib] (first compound 0.08 µM, partner dose 0.4 µM) | 278% | 49% | 113% | 110% | 57.1% | 156% | 118% | 95.6% | 736% | 332%
CO[C@@H]1[C@H](N(C)C(=O)c2ccccc2)C[C@H]2O[C@]1(C)n1c3ccccc3c3c4c(c5c6ccccc6n2c5c31)C(=O)NC4 [Midostaurin] + Cn1cncc1[C@@](N)(c1ccc(Cl)cc1)c1ccc2c(c1)c(-c1cccc(Cl)c1)cc(=O)n2C [tipifarnib] (first compound 0.08 µM, partner dose 0.01 µM) | 183% | 42.4% | 484% | 82.1% | 162% | 141% | 76.5% | 73.1% | 188% | 207%
Cc1ccc(NC(=O)c2cccc(N(C)C)c2)cc1NC(=O)c1ccc(O)cc1 + Cc1cc(N2CCOCC2)cc2[nH]c(-c3c(NC[C@@H](O)c4cccc(Cl)c4)cc[nH]c3=O)nc12 [BMS536924] (first compound 2 µM, partner dose 0.2 µM) | 88.9% | 95.8% | 51.3% | 66.6% | 64.7% | 64% | 85.7% | 226% | 136% | 60.1%
CC1(C)NC(=O)N(c2ccc([N+](=O)[O-])c(C(F)(F)F)c2)C1=O [nilutamide] + Cn1cncc1[C@@](N)(c1ccc(Cl)cc1)c1ccc2c(c1)c(-c1cccc(Cl)c1)cc(=O)n2C [tipifarnib] (first compound 1 µM, partner dose 0.01 µM) | 110% | 78.1% | 41.4% | 191% | 90.6% | 63% | 83.2% | 215% | 46% | 201%
COCC[n+]1c2c(n(Cc3cnccn3)c1C)C(=O)c1ccccc1C2=O + CC(C)(C)c1cnc(CSc2cnc(NC(=O)C3CCNCC3)s2)o1 [SNS-032] (first compound 0.0004 µM, partner dose 0.01 µM) | 201% | 295% | 72.7% | 179% | 72.3% | 128% | 73.4% | 235% | 167% | 314%
CC(=O)c1c(C)c2cnc(Nc3ccc(N4CCNCC4)cn3)nc2n(C2CCCC2)c1=O [palbociclib] + Cc1ccc(NC(=O)c2cccc(N(C)C)c2)cc1NC(=O)c1ccc(O)cc1 [ZM336372] (first compound 0.04 µM, partner dose 2 µM) | 165% | 77.1% | 163% | 109% | 1170% | 174% | 196% | 89.3% | 52.6% | 118%
C=CCNC1=C2C[C@@H](C)C[C@H](OC)[C@H](O)[C@@H](C)/C=C(\C)[C@H](OC(N)=O)[C@@H](OC)/C=C\C=C(/C)C(=O)NC(=CC1=O)C2=O [Tanespimycin] + CCN(CC)CCCCNc1ncc2cc(-c3cc(OC)cc(OC)c3)c(NC(=O)NC(C)(C)C)nc2n1 [PD173074] (first compound 0.002 µM, partner dose 0.1 µM) | 64.2% | 44.7% | 35.7% | 81.8% | 85.8% | 65.9% | 116% | 222% | 84.4% | 40.3%
Clc1ccc(Nc2nnc(Cc3ccncc3)c3ccccc23)cc1 [vatalanib] + O=C1NC(=O)/C(=C/c2ccc(-c3ccc(F)cc3O)o2)S1 [AS252424] (first compound 2 µM, partner dose 1 µM) | 130% | 78.8% | 90.9% | 120% | 147% | 96.1% | 62.6% | 66.5% | 48.8% | 36.8%
COc1cc(Nc2ncc(F)c(Nc3ccc4c(n3)NC(=O)C(C)(C)O4)n2)cc(OC)c1OC [Tamatinib] + Cc1ccc(NC(=O)c2cccc(N(C)C)c2)cc1NC(=O)c1ccc(O)cc1 [ZM336372] (first compound 0.4 µM, partner dose 2 µM) | 234% | 117% | 204% | 158% | 94.1% | 69.8% | 162% | 73.6% | 110% | 274%
NC(=O)Nc1cc(-c2cccc(F)c2)sc1C(=O)N[C@H]1CCCNC1 + O=C(O)c1ccc(-c2c[nH]c3ncc(-c4ccccc4)cc23)cc1C1CCCC1 [GSK650394] (first compound 0.02 µM, partner dose 0.16 µM) | 79.8% | 42.5% | 98.9% | 250% | 27.5% | 95.5% | 220% | 247% | 66.8% | 164%

2 entries drawn at random from the list so far, as already listed:
SMILES | cleaved PARP positive nuclei fraction (MZ2-MEL) | cleaved PARP positive nuclei fraction (MeWo) | cleaved PARP positive nuclei fraction (RPMI7951) | cleaved PARP positive nuclei fraction (RVH-421) | cleaved PARP positive nuclei fraction (SkMel28) | cleaved PARP positive nuclei fraction (SkMel2) | cleaved PARP positive nuclei fraction (SkMel30) | cleaved PARP positive nuclei fraction (SkMel5) | cleaved PARP positive nuclei fraction (UACC257) | cleaved PARP positive nuclei fraction (UACC62)
Cc1ccc(NC(=O)c2cccc(N(C)C)c2)cc1NC(=O)c1ccc(O)cc1 + Cc1cc(N2CCOCC2)cc2[nH]c(-c3c(NC[C@@H](O)c4cccc(Cl)c4)cc[nH]c3=O)nc12 [BMS536924] (first compound 2 µM, partner dose 0.2 µM) | 88.9% | 95.8% | 51.3% | 66.6% | 64.7% | 64% | 85.7% | 226% | 136% | 60.1%
Clc1ccc(Nc2nnc(Cc3ccncc3)c3ccccc23)cc1 [vatalanib] + O=C1NC(=O)/C(=C/c2ccc(-c3ccc(F)cc3O)o2)S1 [AS252424] (first compound 2 µM, partner dose 1 µM) | 130% | 78.8% | 90.9% | 120% | 147% | 96.1% | 62.6% | 66.5% | 48.8% | 36.8%
